According to PMC8632809:
Results are given in words; binding and its absence hold for the method and conditions named. Binding seen in cells or lysates may run through a third protein. Some entries that bind do so weakly or less than the wild type.

Amino acid sequences for entries named in this document (tags omitted).
UniProt O94851: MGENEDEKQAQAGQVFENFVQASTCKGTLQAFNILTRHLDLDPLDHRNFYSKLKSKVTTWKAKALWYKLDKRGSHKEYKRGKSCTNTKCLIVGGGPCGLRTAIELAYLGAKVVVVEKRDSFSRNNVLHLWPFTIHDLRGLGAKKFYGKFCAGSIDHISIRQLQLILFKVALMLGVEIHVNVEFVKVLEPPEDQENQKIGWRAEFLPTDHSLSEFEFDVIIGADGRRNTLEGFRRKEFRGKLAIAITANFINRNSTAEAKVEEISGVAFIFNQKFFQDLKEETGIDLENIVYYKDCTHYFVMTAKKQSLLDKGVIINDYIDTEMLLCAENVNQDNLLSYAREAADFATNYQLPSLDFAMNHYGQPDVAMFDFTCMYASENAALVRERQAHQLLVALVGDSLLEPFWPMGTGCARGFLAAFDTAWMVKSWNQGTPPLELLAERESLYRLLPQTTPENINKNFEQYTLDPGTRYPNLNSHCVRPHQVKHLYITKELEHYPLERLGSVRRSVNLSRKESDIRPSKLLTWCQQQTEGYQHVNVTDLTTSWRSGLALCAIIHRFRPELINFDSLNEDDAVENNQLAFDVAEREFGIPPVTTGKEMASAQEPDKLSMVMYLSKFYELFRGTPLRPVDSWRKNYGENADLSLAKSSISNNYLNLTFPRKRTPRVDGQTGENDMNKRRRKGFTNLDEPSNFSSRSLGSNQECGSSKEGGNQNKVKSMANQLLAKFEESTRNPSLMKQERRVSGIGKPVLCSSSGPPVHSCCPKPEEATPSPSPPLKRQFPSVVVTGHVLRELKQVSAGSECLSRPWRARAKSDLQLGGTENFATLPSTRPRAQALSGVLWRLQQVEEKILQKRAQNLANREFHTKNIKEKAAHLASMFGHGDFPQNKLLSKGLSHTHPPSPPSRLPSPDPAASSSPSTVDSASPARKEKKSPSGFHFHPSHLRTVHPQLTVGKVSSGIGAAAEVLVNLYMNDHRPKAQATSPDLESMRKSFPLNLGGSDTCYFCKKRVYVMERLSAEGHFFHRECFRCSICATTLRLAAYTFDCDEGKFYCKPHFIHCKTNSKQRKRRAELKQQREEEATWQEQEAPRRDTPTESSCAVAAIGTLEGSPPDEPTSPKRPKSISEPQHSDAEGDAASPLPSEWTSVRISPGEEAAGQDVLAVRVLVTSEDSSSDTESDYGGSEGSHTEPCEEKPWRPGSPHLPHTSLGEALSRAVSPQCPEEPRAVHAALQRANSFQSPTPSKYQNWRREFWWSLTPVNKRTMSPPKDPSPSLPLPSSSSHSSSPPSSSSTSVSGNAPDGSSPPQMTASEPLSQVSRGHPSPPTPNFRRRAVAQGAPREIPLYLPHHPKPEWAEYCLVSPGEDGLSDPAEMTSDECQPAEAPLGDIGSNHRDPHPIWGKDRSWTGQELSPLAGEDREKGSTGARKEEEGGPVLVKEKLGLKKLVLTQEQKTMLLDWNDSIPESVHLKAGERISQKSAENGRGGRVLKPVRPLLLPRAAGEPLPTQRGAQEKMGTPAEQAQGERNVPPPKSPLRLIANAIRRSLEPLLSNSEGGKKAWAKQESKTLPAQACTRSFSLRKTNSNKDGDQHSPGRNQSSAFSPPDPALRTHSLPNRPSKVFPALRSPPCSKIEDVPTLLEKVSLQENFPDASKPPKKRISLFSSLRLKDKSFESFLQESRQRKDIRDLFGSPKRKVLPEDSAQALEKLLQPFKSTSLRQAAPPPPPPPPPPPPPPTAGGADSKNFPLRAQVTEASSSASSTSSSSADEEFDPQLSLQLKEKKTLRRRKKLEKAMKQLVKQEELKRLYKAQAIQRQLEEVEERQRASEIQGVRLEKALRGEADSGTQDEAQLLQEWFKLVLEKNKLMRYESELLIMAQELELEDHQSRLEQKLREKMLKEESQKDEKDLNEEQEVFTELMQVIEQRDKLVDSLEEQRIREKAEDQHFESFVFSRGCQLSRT

Molecular target: T1, TGF receptor-type I (TGFRI) (human (endogenous in GBM cells; U87 and U251 lines were used)) (UniProt P36897)
T1 sequence: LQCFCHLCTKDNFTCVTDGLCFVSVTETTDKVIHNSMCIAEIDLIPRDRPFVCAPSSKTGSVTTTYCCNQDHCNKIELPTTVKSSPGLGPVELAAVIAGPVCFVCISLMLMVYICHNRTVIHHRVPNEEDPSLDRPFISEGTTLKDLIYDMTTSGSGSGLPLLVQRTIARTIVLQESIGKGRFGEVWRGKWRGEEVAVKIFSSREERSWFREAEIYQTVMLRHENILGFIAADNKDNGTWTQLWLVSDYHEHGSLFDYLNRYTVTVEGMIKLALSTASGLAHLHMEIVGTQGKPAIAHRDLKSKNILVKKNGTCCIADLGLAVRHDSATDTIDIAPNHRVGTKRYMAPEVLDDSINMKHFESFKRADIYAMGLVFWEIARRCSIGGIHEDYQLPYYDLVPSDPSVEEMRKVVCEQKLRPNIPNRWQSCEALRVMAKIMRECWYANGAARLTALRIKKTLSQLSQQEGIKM
Assay: co-IP; lysates of GBM cells (RIPA lysis buffer with protease and phosphatase inhibitors) immunoprecipitated with anti-MICAL2-agarose or anti-TGFRI-agarose antibodies, anti-IgG as control; Western blot with the indicated antibodies

- binding: binds
Substance: molecule interacting with CasL2 (MICAL2) (from UniProt O94851 1-1957)
